# Experimental data as given in the supplement of paper PMC3334620.
# In all, about 33,000 sequences were measured (“E-score (-0.5 to 0.5)”: median about -0.016, highest 2% from about 0.3 on). This is one part of the list.
# Target: T1, Yer184c (UniProt P39961)
# T1 sequence: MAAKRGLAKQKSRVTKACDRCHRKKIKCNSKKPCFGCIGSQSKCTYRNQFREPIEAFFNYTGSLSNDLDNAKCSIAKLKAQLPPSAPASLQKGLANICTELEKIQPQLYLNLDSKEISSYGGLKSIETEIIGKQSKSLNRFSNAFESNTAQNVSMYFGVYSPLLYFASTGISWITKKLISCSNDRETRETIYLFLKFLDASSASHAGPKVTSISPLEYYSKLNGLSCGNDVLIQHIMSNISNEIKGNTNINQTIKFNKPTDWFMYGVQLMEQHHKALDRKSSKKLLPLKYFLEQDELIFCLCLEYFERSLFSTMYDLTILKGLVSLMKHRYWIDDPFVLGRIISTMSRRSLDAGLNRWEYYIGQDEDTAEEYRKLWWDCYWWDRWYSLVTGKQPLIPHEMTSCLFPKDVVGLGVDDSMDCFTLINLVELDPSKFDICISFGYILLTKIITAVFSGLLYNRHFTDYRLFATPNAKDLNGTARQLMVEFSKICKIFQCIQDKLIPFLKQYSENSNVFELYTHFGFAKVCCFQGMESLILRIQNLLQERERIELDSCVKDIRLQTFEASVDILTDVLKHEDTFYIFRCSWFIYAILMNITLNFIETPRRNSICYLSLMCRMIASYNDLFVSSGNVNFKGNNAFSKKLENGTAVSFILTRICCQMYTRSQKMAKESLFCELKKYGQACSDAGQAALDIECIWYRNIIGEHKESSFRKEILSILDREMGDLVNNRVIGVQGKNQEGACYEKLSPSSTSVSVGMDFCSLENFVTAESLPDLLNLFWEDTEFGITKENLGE
# Test: PBM E-score (8-mer binding enrichment) (E-score (-0.5 to 0.5)); higher = stronger / more preferred TF binding
# Conditions: protein concentration: 100 nM; construct: GST-full length
# In short: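 Full-length yeast transcription factors or their DNA-binding domains, GST-tagged and expressed with PURExpress, were applied at about 100-200 nM to universal all-10-mer Agilent arrays. These arrays had been made double-stranded by primer extension on fresh or once-stripped slides. Detection used fluorescent anti-GST, normalisation used masliner, and E-scores for ungapped eight-base words pooled with reverse complements came from the Universal PBM Analysis Suite.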
row,Sequence,PBM E-score
1,ATGACTCC,-0.0942
2,CGAGCCGA,0.299
3,AAGGGCCG,0.0222
4,GGTACCCA,-0.187
5,ATCAAAAT,0.0991
6,GGTAGGAA,-0.0256
7,AACGTTCA,-0.282
8,AGGGCATC,-0.296
9,CATGCGTA,-0.0609
10,CCAAGAAA,0.136
11,TGCACGCA,-0.151
12,AATACTAA,0.157
13,ATCTGATC,0.134
14,ACGGACTA,0.0981
15,GGTGAATA,0.0495
16,AAACAGAC,0.0301
17,CCGTCGCC,0.0461
18,CGCTTAAG,-0.133
19,TAACCGAA,0.254
20,GTGACCTA,-0.0502
21,AAATCCGA,0.214
22,CGTGGTAG,-0.0241
23,CGCTGATC,0.0987
24,CCTTGTAC,-0.0976
25,CCCCATAC,-0.196

row,Sequence,PBM E-score
1,AGTTTTGG,0.043
2,AGCTCAGG,-0.0444
3,GGAACCAC,0.0749
4,CATCCAGG,-0.24
5,ATATACTC,-0.0639
6,CACTATAA,-0.0525
7,AAGCCGGC,0.374
8,AGCGTATA,-0.0154
9,GCGGTCTA,0.03
10,CCAAGGTC,-0.16
11,AGCAATTG,0.0989
12,ACGCAGCT,-0.0846
13,ACCATAGC,-0.052
14,ACACGTTA,-0.274
15,AAAAATTC,0.0768
16,AAAAGCAC,-0.0881
17,CACGTGCG,-0.085
18,CACCTCCA,-0.0907
19,TAACAACA,0.114
20,CTTGTTGC,0.0746
21,ATTAGCCG,0.272
22,CACGTAAG,-0.165
23,CCGCTGTC,-0.0701
24,AAGCCTGC,-0.114
25,ATTGACAA,-0.0306

row,Sequence,PBM E-score
1,CCAGCAAA,0.0844
2,TATACCGA,0.28
3,AAATTTGC,0.176
4,AAATACTA,0.0492
5,ACCTAGCG,-0.0417
6,ATAGCTGG,-0.106
7,AGGGGCGG,-0.132
8,CAATAGGG,-0.17
9,CGAGTCCC,0.0175
10,ACATTGTC,0.196
11,AAACCCAC,0.0014
12,ATAATCAG,0.0974
13,CATGGGTA,-0.155
14,CGTATGAC,0.0296
15,GTCTGGTA,-0.154
16,GATGAAGC,0.0006
17,TCTACCCA,-0.132
18,GGCTCGAA,0.0128
19,GAGGACCC,-0.148
20,ATACCAGG,-0.122
21,AGATTAAC,0.00456
22,CCACGGGC,-0.094
23,ACGCAGAA,0.0373
24,ACAATTGA,0.00728
25,GTTTAAGA,-0.00403

row,Sequence,PBM E-score
1,ACCGCAGC,-0.172
2,AGTTTGAA,0.0928
3,CTCTCAGC,-0.287
4,CCCGCTCG,-0.173
5,CTCAAGAG,-0.335
6,AGCTCTAA,-0.0792
7,AGCATGCA,-0.256
8,CACTAATA,0.136
9,AGACACCT,-0.173
10,CCTTACCG,0.114
11,ATATTGTA,0.134
12,ATGTAGAC,-0.111
13,ATAGTTAG,0.131
14,TAGGATGA,-0.0545
15,GTATTGTA,0.129
16,CAATGATC,0.0401
17,ATTGGACA,0.179
18,ATAGTACG,0.0144
19,AAGCCAAG,-0.0123
20,CATCGATG,0.0168
21,CACACGGA,0.0751
22,CTGCGACA,0.0292
23,GGGCTACC,-0.178
24,CCACTACC,-0.172
25,GGAGCGCC,-0.217

# Some of the entries so far, with tabs.
row	Sequence	PBM E-score
6	AGCTCTAA	-0.0792
7	AGCATGCA	-0.256
8	CACTAATA	0.136

# Single values from the results shown:
# PBM E-score with CTCAAGAG is entered as -0.335
# PBM E-score with ATATTGTA is entered as 0.134
# PBM E-score with ATAGTACG is entered as 0.0144
# PBM E-score with GGGCTACC is entered as -0.178
# PBM E-score with CCACTACC is entered as -0.172

# Next results.

row,Sequence,PBM E-score
1,CCTCCGAC,-0.179
2,CCCGAGCC,0.155
3,CTAACACA,0.169
4,ATGTTAGA,-0.12
5,CTATTATA,0.113
6,AAGCACTA,-0.0951
7,CACTAGGA,-0.0866
8,TATTGGCA,0.0426
9,GCTCCTTA,0.00377
10,TCGCCCCA,-0.25
11,AACTACGA,-0.00342
12,CCAGGATC,0.0359
13,ATCACTCG,-0.126
14,AGCTGCAG,-0.044
15,GTTTTAGA,0.147
16,CCTAAAGG,-0.122
17,AGCAGGTC,-0.0774
18,AGACTGCA,-0.24
19,AACAGGAA,0.0432
20,CATCTGTC,-0.214
21,CCAGTCCA,-0.252
22,CCCAAATC,-0.0623
23,GTCGCACA,-0.0371
24,GCGCCAAA,-0.00708
25,ACTCGACG,-0.0124

row,Sequence,PBM E-score
1,CCTCGGAC,0.17
2,GCCTCCGC,-0.149
3,GCCGTCCC,0.031
4,CCGATTAA,0.256
5,AATACTTC,0.0502
6,CGTAACCC,-0.0638
7,ACATCGTC,-0.00796
8,CATTGTCC,-0.00591
9,CAAATCAC,-0.217
10,AGATGCCT,-0.0639
11,AGTAAACG,0.0151
12,CGATGAAA,0.0309
13,CATATGGG,-0.176
14,AAGACGGA,0.181
15,TATCTGAA,0.108
16,CTCGACCC,-0.118
17,ATAGGAGC,-0.0977
18,AATTTCGA,-0.0707
19,GAAGAGAA,0.0856
20,GTAGATTA,0.173
21,CTAGACAC,-0.00812
22,ATAGGCTA,-0.0853
23,CCTAATTC,0.00904
24,TGCAGGAA,0.0285
25,AAAAACCG,0.0868

row,Sequence,PBM E-score
1,CGGTGCAG,0.115
2,GGACCCCA,-0.227
3,ACCTCTAC,-0.058
4,CAACTTTC,0.0846
5,GAGAGGTA,-0.287
6,AACAGTTC,0.0577
7,CTCTTTGC,-0.0871
8,GTTAACAA,0.165
9,TGGCGCCA,-0.107
10,ACTGGGTC,-0.271
11,GGAAAGAA,0.128
12,ATGGTATA,-0.0158
13,CGGGGTCA,-0.107
14,TGCGCCAA,-0.00426
15,CCTGGGAC,-0.329
16,CCCTCCCA,-0.0968
17,AACAAGTA,-0.0265
18,AACCTCTG,-0.12
19,GCTTACGA,-0.135
20,CGTCTCAA,0.0441
21,AAAGAAAA,0.265
22,GTAATAGA,-0.066
23,ATTCTAAC,0.0232
24,AATTTACA,0.037
25,AGTATACG,0.0157

row,Sequence,PBM E-score
1,CCCCTTAC,-0.163
2,CAATAGCA,-0.0713
3,ACTACGCC,-0.131
4,ATAACATC,0.0727
5,ATGGGAAA,-0.161
6,CACTCCAA,-0.0555
7,ATAGCTCC,-0.169
8,CAAAAGTC,0.0782
9,GCTATACA,0.0638
10,GTGTCTTA,-0.13
11,ACCATAGT,-0.0256
12,GTAAACAA,0.154
13,CGCCATCC,-0.0918
14,GTTCAATA,0.138
15,AAGATCCA,0.0572
16,CTTTCTTA,-0.0148
17,CTTCCGGA,0.402
18,AGTACGCG,0.00663
19,GACTCGGC,0.121
20,GCGTAATA,-0.0365
21,GAATAGTC,-0.00027
22,TATCCCCA,-0.209
23,TCCACGAA,0.0722
24,GACATTAA,0.132
25,CCCCACGA,-0.182

row,Sequence,PBM E-score
1,CATGAGGA,-0.0756
2,CGACTTGC,-0.129
3,TACAGCTA,-0.261
4,CGTGAAAC,0.0529
5,GTGAGGAA,-0.0432
6,ACAATGAT,0.0383
7,ACGCAAAT,0.0394
8,AAACGAGT,0.0932
9,AACGATGC,-0.166
10,ATGTTGAA,0.133
11,AGTTTCAA,0.058
12,CTCAATGC,-0.0849
13,AGCTCCTC,-0.184
14,CCGTGCCC,-0.0431
15,GAGGAATC,-0.0819
16,AATACAAC,0.141
17,AATAACCA,0.0129
18,CTTACCAC,-0.118
19,ATGATTAC,0.0685
